Test results as given in doi:10.1101/754457.
These are yes or no findings as the source states them, for the method shown. Binding seen in cells or lysates may run through a third protein. Binding can be weak; no strength is given. Sequences can lack the tags named with a protein.

Amino acid sequences for entries named in this document (tags omitted). A change or cut given only in a name is not applied to a line headed by its entry.
UniProt Q9USP7: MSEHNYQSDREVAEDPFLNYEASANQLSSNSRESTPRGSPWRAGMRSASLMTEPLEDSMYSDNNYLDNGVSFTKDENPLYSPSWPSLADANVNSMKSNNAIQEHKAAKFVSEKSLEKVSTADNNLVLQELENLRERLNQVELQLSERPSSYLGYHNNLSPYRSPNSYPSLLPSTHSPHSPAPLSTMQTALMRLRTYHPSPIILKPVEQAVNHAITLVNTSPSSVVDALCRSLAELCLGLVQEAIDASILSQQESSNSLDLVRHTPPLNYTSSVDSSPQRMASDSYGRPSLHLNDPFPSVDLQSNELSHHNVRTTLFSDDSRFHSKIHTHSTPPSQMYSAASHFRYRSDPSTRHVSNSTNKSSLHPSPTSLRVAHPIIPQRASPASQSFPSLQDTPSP

target: T1, Mto1[bonsai]-GFP (S. pombe) (UniProt O94488); experiment: co-IP
T1 sequence: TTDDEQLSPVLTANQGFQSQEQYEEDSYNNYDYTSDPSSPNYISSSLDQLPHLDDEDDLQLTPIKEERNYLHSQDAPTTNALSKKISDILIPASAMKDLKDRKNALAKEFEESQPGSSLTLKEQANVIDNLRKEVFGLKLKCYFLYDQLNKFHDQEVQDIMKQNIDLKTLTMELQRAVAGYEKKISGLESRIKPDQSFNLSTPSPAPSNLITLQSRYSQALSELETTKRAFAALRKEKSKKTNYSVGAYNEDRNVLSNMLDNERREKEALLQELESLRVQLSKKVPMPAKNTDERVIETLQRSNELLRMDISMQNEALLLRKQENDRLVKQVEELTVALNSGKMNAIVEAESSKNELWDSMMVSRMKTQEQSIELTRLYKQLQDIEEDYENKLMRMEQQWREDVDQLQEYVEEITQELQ

binding	Substance
binds	Mto2-112AA116AA (in S. pombe) (from UniProt Q9USP7)
binds weakly	Mto2-129AAA134AAA (in S. pombe) (from UniProt Q9USP7)
no binding	Mto2-226A230A234A (in S. pombe) (from UniProt Q9USP7)
